PubChem BioAssay AID1224830 | NIAID – 2016

Screen: 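Genes whose knock-down alters the TNF-alpha reporter response to LPS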 (primary screen)
System: human THP-1 monocytic leukaemia cells, TNF dual-luciferase reporter clone, PMA-differentiated to macrophage-like cells
Reagents: siRNA pool against human genes, 50 nM
Time to read-out: LPS for 4 h, given about 3 days after siRNA transfection
Treatment: bacterial LPS (TLR4 ligand), 10 ng/ml
Detection: 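Ratio of firefly to renilla light, scaled to the plate median and expressed as a robust z-score per replicate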
Direction: TNF reporter robust z-score: higher = stronger TNF reporter response to LPS
Active means: 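a well is active when its z-score exceeds 2.8 or falls below -1.5; control wells carry no call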
The whole screen tested about 18,000 reagents; below is a part drawn at random. About 2,900 of all reagents (16%) were called active. 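Calls are made per well; low scores hint the gene aids the LPS response, high scores that it dampens it.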 Repeated entries: four replicate wells of each siRNA pool. Reagent sequences are not shown.

TRMT1L: TNF reporter robust z-score = -1.03; Call = inactive
TRMT1L: TNF reporter robust z-score = 0.17; Call = inactive
TRMT1L: TNF reporter robust z-score = -0.98; Call = inactive
TRMT1L: TNF reporter robust z-score = -0.27; Call = inactive
SLC39A8: TNF reporter robust z-score = 0.76; Call = inactive
SLC39A8: TNF reporter robust z-score = 1.21; Call = inactive
SLC39A8: TNF reporter robust z-score = 1.82; Call = inactive
SLC39A8: TNF reporter robust z-score = -0.21; Call = inactive
ARHGEF25: TNF reporter robust z-score = 0.14; Call = inactive
ARHGEF25: TNF reporter robust z-score = 0.34; Call = inactive
ARHGEF25: TNF reporter robust z-score = 0.01; Call = inactive
ARHGEF25: TNF reporter robust z-score = 0.68; Call = inactive
DBNDD1: TNF reporter robust z-score = -1.39; Call = inactive
DBNDD1: TNF reporter robust z-score = -0.67; Call = inactive
DBNDD1: TNF reporter robust z-score = -0.24; Call = inactive
DBNDD1: TNF reporter robust z-score = 0.53; Call = inactive

Quoted from the listing for reference:
TRMT1L: TNF reporter robust z-score = -0.98; Call = inactive
TRMT1L: TNF reporter robust z-score = -0.27; Call = inactive
SLC39A8: TNF reporter robust z-score = 0.76; Call = inactive

Further records follow.
SMOX: TNF reporter robust z-score = 1.56; Call = inactive
SMOX: TNF reporter robust z-score = 1.51; Call = inactive
SMOX: TNF reporter robust z-score = -0.41; Call = inactive
SMOX: TNF reporter robust z-score = 1.81; Call = inactive
TREX1: TNF reporter robust z-score = -0.73; Call = inactive
TREX1: TNF reporter robust z-score = -0.79; Call = inactive
TREX1: TNF reporter robust z-score = -0.19; Call = inactive
TREX1: TNF reporter robust z-score = 0.28; Call = inactive
PADI1: TNF reporter robust z-score = 2.39; Call = inactive
PADI1: TNF reporter robust z-score = -1.01; Call = inactive
PADI1: TNF reporter robust z-score = -1.6; Call = active
PADI1: TNF reporter robust z-score = -1.55; Call = active
RRP8: TNF reporter robust z-score = -1.04; Call = inactive
RRP8: TNF reporter robust z-score = -0.68; Call = inactive
RRP8: TNF reporter robust z-score = -0.85; Call = inactive
RRP8: TNF reporter robust z-score = -0.45; Call = inactive
SH3YL1: TNF reporter robust z-score = -0.06; Call = inactive
SH3YL1: TNF reporter robust z-score = -0.38; Call = inactive
SH3YL1: TNF reporter robust z-score = -0.1; Call = inactive
SPRING1: TNF reporter robust z-score = -1.12; Call = inactive
SPRING1: TNF reporter robust z-score = 0.61; Call = inactive
SPRING1: TNF reporter robust z-score = 0.14; Call = inactive
SPRING1: TNF reporter robust z-score = -0.78; Call = inactive
EZH1: TNF reporter robust z-score = -1.61; Call = active
EZH1: TNF reporter robust z-score = -0.91; Call = inactive
EZH1: TNF reporter robust z-score = 0.05; Call = inactive
EZH1: TNF reporter robust z-score = -0.61; Call = inactive
DHRS4L2: TNF reporter robust z-score = -1.19; Call = inactive
DHRS4L2: TNF reporter robust z-score = 0.24; Call = inactive
DHRS4L2: TNF reporter robust z-score = -0.81; Call = inactive
DHRS4L2: TNF reporter robust z-score = -0.29; Call = inactive
